Experimental data from patent publication US20090169552A1 (FRED HUTCHINSON CANCER RESEARCH CENTER, published 2009).
These are yes or no findings as the source states them, for the method shown. In cells and extracts the contact can be indirect. Here binding means that the protein was enriched with, or labelled near, the bait; the list need not be complete.

Target: T1, ERp5 (endoplasmic reticulum protein 5) on the cell surface (Homo sapiens (Human)) (UniProt Q15084)
T1 sequence: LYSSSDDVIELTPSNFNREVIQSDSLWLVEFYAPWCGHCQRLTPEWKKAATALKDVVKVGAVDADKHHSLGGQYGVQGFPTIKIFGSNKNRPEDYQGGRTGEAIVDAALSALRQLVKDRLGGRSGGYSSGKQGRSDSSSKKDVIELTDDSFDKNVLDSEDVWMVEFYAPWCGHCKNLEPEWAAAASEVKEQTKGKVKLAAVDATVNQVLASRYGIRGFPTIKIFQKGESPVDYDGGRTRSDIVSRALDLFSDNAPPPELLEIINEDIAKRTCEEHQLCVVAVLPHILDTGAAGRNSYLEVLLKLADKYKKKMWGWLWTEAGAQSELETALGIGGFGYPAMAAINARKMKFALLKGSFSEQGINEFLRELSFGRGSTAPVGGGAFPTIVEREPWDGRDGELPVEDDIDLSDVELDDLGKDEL
Experiment: affinity purification of U266 outer cell membrane proteins on MICA beads, SDS-PAGE, mass spectrometry, immunoblot

B1: MICA conjugated to cyanogen bromide-activated sepharose beads (ligand)
chain: EPHSLRYNLTVLSWDGSVQSGFLTEVHLDGQPFLRCDRQKCRAKPQGQWAEDVLGNKTWDRETRDLTGNGKDLRMTLAHIKDQKEGLHSLQEIRVCEIHEDNSTRSSQHFYYDGELFLSQNLETKEWTMPQSSRAQTLAMNVRNFLKEDAMKTKTHYHAMHADCLQELRRYLKSGVVLRRTVPPMVNVTRSEASEGNITVTCRASGFYPWNITLSWRQDGVSLSHDTQQWGDVLPDGNGTYQTWVATRICQGEEQRFTCYMEHSGNHSTHPVPSGK
modifications: coupled to cyanogen bromide-activated sepharose beads
binding: binds
